According to patent US20180208648A1:
Results are given in words; binding and its absence hold for the method and conditions named. Some entries that bind do so weakly or less than the wild type.

Chains of the proteins cited; added tags and fusions are not shown. Lines headed by an entry give the natural chain unless they say otherwise; changes in a name come on top.
UniProt O95390: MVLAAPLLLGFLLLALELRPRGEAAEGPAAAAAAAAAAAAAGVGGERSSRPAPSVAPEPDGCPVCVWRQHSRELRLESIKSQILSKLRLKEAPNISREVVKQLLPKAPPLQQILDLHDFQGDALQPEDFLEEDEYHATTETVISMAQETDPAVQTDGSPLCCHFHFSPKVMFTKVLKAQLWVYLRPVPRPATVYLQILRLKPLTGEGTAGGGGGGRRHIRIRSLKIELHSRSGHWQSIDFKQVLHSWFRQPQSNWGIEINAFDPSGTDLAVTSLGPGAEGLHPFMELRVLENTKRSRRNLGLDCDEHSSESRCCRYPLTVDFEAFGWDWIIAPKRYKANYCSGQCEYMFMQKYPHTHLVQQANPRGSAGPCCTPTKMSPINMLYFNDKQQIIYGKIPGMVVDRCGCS
UniProt O14793: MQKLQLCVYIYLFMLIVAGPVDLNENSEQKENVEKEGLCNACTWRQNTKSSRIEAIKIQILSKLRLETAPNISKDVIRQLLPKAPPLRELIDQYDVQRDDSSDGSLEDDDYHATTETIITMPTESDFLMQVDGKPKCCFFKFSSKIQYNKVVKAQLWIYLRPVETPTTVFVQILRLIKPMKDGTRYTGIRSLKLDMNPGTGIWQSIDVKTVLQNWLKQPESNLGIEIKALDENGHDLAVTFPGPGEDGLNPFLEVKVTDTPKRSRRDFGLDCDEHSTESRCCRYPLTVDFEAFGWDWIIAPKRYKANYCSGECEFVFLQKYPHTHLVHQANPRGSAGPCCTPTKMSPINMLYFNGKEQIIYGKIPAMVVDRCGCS
UniProt Q9Z1W4: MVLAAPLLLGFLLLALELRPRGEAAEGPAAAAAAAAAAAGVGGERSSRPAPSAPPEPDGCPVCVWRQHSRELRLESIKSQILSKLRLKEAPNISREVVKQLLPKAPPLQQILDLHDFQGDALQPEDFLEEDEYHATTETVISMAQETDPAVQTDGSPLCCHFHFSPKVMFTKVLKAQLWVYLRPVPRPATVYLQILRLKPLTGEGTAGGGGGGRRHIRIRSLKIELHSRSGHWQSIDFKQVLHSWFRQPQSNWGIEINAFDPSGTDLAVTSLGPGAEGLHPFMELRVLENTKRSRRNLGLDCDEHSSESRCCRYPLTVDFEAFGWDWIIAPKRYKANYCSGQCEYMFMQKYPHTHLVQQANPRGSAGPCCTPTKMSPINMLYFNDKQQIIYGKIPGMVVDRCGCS

B1: GDF11 Inh-5 (antibody, V domains shown)
VH: EVQLVQSGAEVKKPGASVKVSCKASGYTFTGYYIYWVRQAPGQGLEWMGWIRPNSGDTNYAQKFQDRLTMTRDTSISTAYMELSRLRSDDTAVYYCAGNYDILTGYQAPLGYWGQGALVTVSS
VL: DIVLTQSPATLSVSPGERATLSCRASQRVISNYLAWYQQKPGQAPRLLIYGASSRATGIPDRFSGSGSGTDFTLSISRLEPEDFAVYYCQHYGPFGGGTKVEIKR
B2: GDF11 Inh-4 (antibody, V domains shown)
VH: QVQLVQSGAEVKKPGASVKVSCKASGYTFTSYGISWVRQAPGQGLEWMGWISAYNGNTNYAQKLQGRVTMTTDTSTSTAYMELRSLRSDDTAVYYCARTPPLWFGEYGAFDIWGQGAMVTVSS
VL: DIQMTQSPSSLSASVGDRVTITCQASQDISNYLNWYQQKPGKAPKLLIYDASNLETGVPSRFSGSGSGTDFTLTISSLQPDDFATYYCQQSYTTPITFGQGTRLEIKR
B3: GDF11 Inh-3 (antibody, V domains shown)
VH: QVQLVQSGGGVVQPGRSLRLSCAASGFTFSSYAMHWVRQAPGKGLEWVAVISYDGSNEYYADSVKGRFTISRDNSKNTLYLQMNSLRAEDTAVYYCAKDFWSGYPQYNWFDPWGQGTLVTVSS
VL: EIVMTQSPATLSLSAGERATLSCRASQSVSNYLAWYQQKPGQAPRLLIYDASNRATGIPARFSGSGSGTDFTLTISSLEPEDFAVYYCQQYGSAPLTFGGGTNVEIKR
B4: GDF11 Inh-6 (antibody, V domains shown)
VH: QVQLQESGPGLVKPSETLSLTCTVSGGSISSSSYYWGWVRQPPGKGLEWIGEIYHSGSTNYNPSLKSRVTISVDTSKNQFSLKLSSVTAADTAVYYCARVGTSWEYYFDYWGQGTLVTVSS
VL: DIQMTQSPASLSASVGDRVTITCRTSQHIINYLNWYQQRPGKAPNLLIYKASTLQSGVPSRFSGSGSGTHFTLTISSLQPEDFATYYCQQYQSYPITFGQGTRLEIKR
B5: GDF11 Inh-1 (antibody, V domains shown)
VH: EVQLLESRGGLVQPGRSLRLSCAASGFTFDDYAMHWVRQAPGKGLEWVSGISWNSGSIGYADSVKGRFTISRDNTKNSLYLQMNSLRAEDTGVYYCAREVTGDLDYWGQGTLVTVSS
VL: EIVMTQSPGTLSLSPGERATLSCRASQFLSSTYLAWYQQRPGQAPRLLIYSASNRATGVPDRFSGSGSGTDFTLKISRVEAEDVGVYYCMQATHWPYTFGQGTKLEIKR

Biological target: human latent GDF11 (human) (UniProt O95390)
Assay: ELISA, biotinylated antigen on neutravidin plate

binding	Binder
binds	B1
binds	B2
binds	B3
binds	B4
binds	B5

Biological target: human mature GDF11 (human) (UniProt O95390)
Assay: ELISA, biotinylated antigen on neutravidin plate

binding	Binder
binds	B1
binds	B4

Biological target: human proGDF11 (human) (UniProt O95390)
Assay: ELISA, biotinylated antigen on neutravidin plate

binding	Binder
binds	B1
binds	B2
binds	B3
binds	B4
binds	B5

Biological target: human proGDF11 ARM8 (human)
Assay: ELISA, biotinylated antigen on neutravidin plate

binding	Binder
binds	B1

Biological target: human proGDF8 (human) (UniProt O14793)
Assay: ELISA, biotinylated antigen on neutravidin plate

binding	Binder
binds	B5

Biological target: human prodomain GDF11 ARM8 (human)
Assay: ELISA, biotinylated antigen on neutravidin plate

binding	Binder
binds	B1
binds	B5

Biological target: murine latent GDF11 (mouse) (UniProt Q9Z1W4)
Assay: ELISA, biotinylated antigen on neutravidin plate

binding	Binder
binds	B1
binds	B2
binds	B3
binds	B4
binds	B5

Biological target: murine proGDF11 (mouse) (UniProt Q9Z1W4)
Assay: ELISA, biotinylated antigen on neutravidin plate

binding	Binder
binds	B1
binds	B2
binds	B3
binds	B4
binds	B5
